Source: EP3444273A1 (Medicinal Bioconvergence Research Center, dated 2019)
Results are given in words; binding and its absence hold for the method and conditions named. Some binding calls cover weakened binding; strength is not graded here. Ends that are not written are not given here.

Tests used:
[1] = biological target: T1, AIMP2-DX2 protein (human) (UniProt Q13155); assay: Western blot of SW620 cell lysate, periplasmic extract as primary antibody (data not shown)
T1 sequence: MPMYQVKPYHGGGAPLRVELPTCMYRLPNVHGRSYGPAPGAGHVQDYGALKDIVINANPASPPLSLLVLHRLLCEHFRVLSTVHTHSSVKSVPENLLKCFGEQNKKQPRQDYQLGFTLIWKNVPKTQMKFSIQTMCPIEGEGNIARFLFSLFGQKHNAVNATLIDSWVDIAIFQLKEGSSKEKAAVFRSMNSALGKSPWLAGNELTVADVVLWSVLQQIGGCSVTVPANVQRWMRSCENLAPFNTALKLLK

[2] = biological target: T1, AIMP2-DX2 protein (human); assay: Western blot of H460 cell lysate

B1: H5 Fab (Fab, V domains shown)
VH: QEQLVESGGGLVTPGGTLTLTCTASGFTISSYHMTWVRQAPGKGLEWIGVISNSGGTSYANWAKGRFTISKTSTTVDLKITSPTTEDTATYFCVRGVPGINSNLWGQGTLVTISS
VL: AQVLTQTPSSVSAAVGGTVTINCQSSQSVYSGNWLAWYQQKPGQPPKLLIYSTSTLASGVPSRFKGSGSGTQFTLTVSDLECDDAATYYCAGDYDGYKNAFGGGTKVVVKR
notes: Expressed from pComb3XTT in E. coli and used as periplasmic extract; Detected with anti-HA tag or anti-human Fab secondary antibody, so a tag may be present; also called antibody (Fab) of clone H5; rabbit/human chimeric Fab
Which binding [1] does the source give for B1 here?
The binding was “binds”.

What about the binding [2] of the same binder?
The binding was “binds”.
